PubChem BioAssay AID1259405 – NCATS | 2018

Purpose: 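Knock-downs that lift recombinant protein yield in hamster ovary cells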 (primary screen)
Cell system: Chinese hamster CHO-K1 ovary cells with stable secreted eGFP expression
Reagents: single siRNA against mouse genes, 0.8 pmol siRNA per well (2 µl of 400 nM stock)
Duration: 3 days
Measured: 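Per-well intracellular GFP measured by laser scanning cytometry, plus viability from ATP luminescence, each relative to plate median of non-targeting control wells, in %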
Reading the numbers: GFP, % of control: higher = more GFP per well, higher productivity; viability (ATP), % of control: higher = more viable cells (more ATP)
Call rule: 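a knock-down is called active if GFP reaches 120% or more of non-targeting control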
Here is one part, drawn at random, of about 50,000 reagents tested. About 4,000 of them (8%) were called active. 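Mouse siRNA library applied to hamster cells; one well for each siRNA.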 Reagents against one gene are numbered here. Reagent sequences are not shown.

The first 5 entries, ahead of the listing:
target gene,reagent no.,"GFP, % of control","viability (ATP), % of control",call
Camk1,1,92.7,59.7,inactive
Vmn1r45,1,72.1,76.1,inactive
Vmn1r45,2,35.6,20.9,inactive
Vmn1r45,3,68.4,77.7,inactive
Or2f2,1,63.6,67.6,inactive

Results, from the start:
target gene,reagent no.,"GFP, % of control","viability (ATP), % of control",call
Camk1,1,92.7,59.7,inactive
Vmn1r45,1,72.1,76.1,inactive
Vmn1r45,2,35.6,20.9,inactive
Vmn1r45,3,68.4,77.7,inactive
Or2f2,1,63.6,67.6,inactive
Or2f2,2,221,71.4,active
Or2f2,3,64.6,66.2,inactive
Znf41-ps,1,85.8,78.6,inactive
Znf41-ps,2,79.1,61.3,inactive
Znf41-ps,3,126,93.1,active
Npy1r,1,74.3,53,inactive
Npy1r,2,90.4,79.4,inactive
Npy1r,3,89.4,65.1,inactive
Dhx8,1,68.1,66.2,inactive
Dhx8,2,93.8,98.2,inactive
Dhx8,3,97.1,120,inactive
Trpv5,1,89.4,106,inactive
Trpv5,2,88.2,85.8,inactive
Trpv5,3,89.3,103,inactive
Epn1,1,83.4,90.6,inactive
Epn1,2,86.5,73.3,inactive
St3gal1,1,76.1,90.8,inactive
St3gal1,2,98.1,146,inactive
St3gal1,3,92.1,123,inactive
Or10h28,1,41.9,14.8,inactive
Or10h28,2,86.3,91.7,inactive
Or10h28,3,42.6,54.7,inactive
B230219D22Rik,1,78.1,58,inactive
B230219D22Rik,2,70,81.4,inactive
B230219D22Rik,3,91.8,85.8,inactive
Bcas2,1,53.4,78.5,inactive
Bcas2,2,76.4,92.3,inactive
Bcas2,3,122,141,active
Atp1a3,1,105,143,inactive
Atp1a3,2,59.8,68.7,inactive
Atp1a3,3,64,72.8,inactive
Elmo3,1,41.7,32,inactive
Elmo3,2,69.3,86.9,inactive
Elmo3,3,60.2,54,inactive
Ptprt,1,67.2,45.7,inactive
Ptprt,2,42.7,28.9,inactive
Ptprt,3,77.4,95.9,inactive
Pdgfra,1,57.6,62.8,inactive
Fzd1,1,106,168,inactive
Fzd1,2,105,97.6,inactive
Pigf,1,76.1,80.3,inactive
Pigf,2,109,104,inactive
Pigf,3,82.7,92.7,inactive
Havcr2,1,124,81,active
Havcr2,2,89.5,68.1,inactive
Mrpl35,1,59.9,71.9,inactive
Mrpl35,2,39.2,60.5,inactive
Mrpl35,3,104,54.5,inactive
Gsk3b,1,43.1,44.4,inactive
Trappc12,1,134,98.2,active
Trappc12,2,60.3,74.2,inactive
Trappc12,3,79.1,80.6,inactive
Nrg4,1,72.6,53.5,inactive
Nrg4,2,55.5,76.9,inactive
Nrg4,3,90.1,41.9,inactive
Or7a36,1,46.3,42,inactive
Or7a36,2,67.3,62.6,inactive
Or7a36,3,89.3,70.4,inactive
Bmpr1b,1,63.2,74.7,inactive
D830044D21Rik,1,50.4,79,inactive
D830044D21Rik,2,87.1,82.9,inactive
D830044D21Rik,3,111,97.6,inactive
Gimap7,1,62.4,69.5,inactive
Gimap7,2,129,78.2,active
Gimap7,3,108,98.7,inactive
Kcne3,1,67.5,102,inactive
Kcne3,2,34.5,32.3,inactive
Kcne3,3,93.7,89,inactive
Aldh2,1,74.4,66.3,inactive
Aldh2,2,94.6,59.9,inactive
Aldh2,3,57.5,65,inactive
Cdca3,1,68.6,81,inactive
Cdca3,2,81.8,100,inactive
Cdca3,3,77,65.7,inactive
Smcr8,1,75.9,65.4,inactive
Smcr8,2,92.4,78.3,inactive
Smcr8,3,70.3,54.5,inactive
Pcdha8,1,68.1,64.8,inactive
Pcdha8,2,55.6,48.6,inactive
Pcdha8,3,66.1,70.8,inactive
